Construct, isoform or probe ends are uncertain for at least one entry. At least one verdict was read from the data and is not stated in words by the source. Protein sequences can lack the tags named with them.

The record followed here is publication PMC3469484.

In the data set the test system is T1, OhrR WT (Chromobacterium violaceum ATCC 12472).
T1 sequence (looked up): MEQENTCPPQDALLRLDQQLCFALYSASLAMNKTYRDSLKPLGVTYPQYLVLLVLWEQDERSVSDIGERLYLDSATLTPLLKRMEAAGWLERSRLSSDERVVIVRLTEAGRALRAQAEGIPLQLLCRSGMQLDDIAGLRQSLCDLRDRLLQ
The data set is described as follows: competition with a labelled probe. To be noted: 250 nM OhrR, EMSA: 20 mM Tris-HCl pH 7.4, 50 mM KCl, 1 mM DTT, 1 mM EDTA, 5% glycerol, 0.05 mg/ml BSA, 0.1 mg/ml salmon sperm DNA, 25 C, 25 min, footprinting the same without EDTA, recombinant protein, residues 1-151, protein details: N-terminal His (pProEX HTa), probe letters rebuilt from the primers and the genome.

Turning to “TAAGCTTGCGGTGGCTTCGGCGGTATACAGTACTTTTTGCAGAGGGTTCATCTGGCTCTCCTTGGCTTGACGCCGTTGCGATTAAAATAATGAGCTATTTAATAGTGCACTATCTAACTATCAAAACCCTGACGGGTTCATTGCAGCAGCCGGTCGCGCAGATCGCACAGCGACTGCCTCAATCCGGCGATATCGTCCAGTTGCATTCCGCTCCGGCAGGATCCA (double strand) [ohrA promoter]”, for the setting “30-fold unlabeled ohrA promoter”, the binding result is “binds”.
With “TGGATCCCTCGCTGGCCGATCTGGGACGCGGCCCGGTGCGGGCGGCCGCCTGATCGCGGTTTCGCGCCCGCTTGGCGCGGGCGCGTCGCGGTTCCGCATAATAATAAATTGCTTGCAATTAAATAGTGCACTATTTATTATGCGGCCATGGAACAAGAAAACACGTGCCCGCCGCAGGACGCGCTTTTGCGGCTGGACCAGCAACTCTGCTTCGCGCTGTATTCCGCCAAGCTTA (double strand) [ohrR promoter]”, the binding result (30-fold unlabeled ohrR promoter) is given as “binds”.
